Results reported in patent publication US8012949B2, “Bisphosphonate compounds and methods with enhanced potency for multiple targets including FPPS, GGPPS, and DPPS” (The Board of Trustees of the University of Illinois, priority 2004, dated 2011).
At least one structure is not confirmed: it was looked up by name or label, or the drawing left a doubt.

tested on: T. brucei FPPS; assay: T. brucei FPPS inhibition; assay type: biochemical, Trypanosoma brucei; conditions: log of T. brucei FPPS IC50

Structure (SMILES)	log (IC50) T. brucei
C[S+](C)CCC(O)(P(=O)([O-])O)P(=O)(O)O (centres unmarked) [BPH-540]	−4.95
N=C(N)NCC(O)(P(=O)(O)O)P(=O)(O)O [BPH-678]	−4.59
C[P+](C)(C)CC(O)(P(=O)([O-])O)P(=O)(O)O (centres unmarked) [BPH-536]	−4.58
C[As+](C)(C)CC(O)(P(=O)([O-])O)P(=O)(O)O (centres unmarked) [BPH-560]	−3.56
C[S+](C)CC(O)(P(=O)(O)O)P(=O)(O)O [BPH-527, (2-Hydroxy-2,2-bis-phosphono-ethyl)-dimethyl-sulfonium]	−6.11
